No constants are given. Whether binding was seen depends on the method and setting. For some of these results: Binding seen in cells or lysates may run through a third protein. Some results given as binding are weak or reduced against the parent protein; the word gives no strength. For some of these results: Where a sequence is shown, tags or fusion partners need not be part of it.
Assays:
[1] = target: endogenous calnexin (HEK293T and other human cells) (human) (UniProt P27824); assay: co-immunoprecipitation from HEK293T cells transfected with HA-tagged Nef and treated with DMSO, NSC 1758, NSC 13987 or NSC 92938; IP with anti-HA agarose, western blot for Nef and calnexin; densitometry of 3 experiments
[2] = target: T1, recombinant full-length calnexin (CNX), His-tagged, purified from E. coli after removal of the CL7 tag (human) (UniProt P27824); assay: SPR with purified recombinant proteins (legend of FIG. 5)
T1 sequence: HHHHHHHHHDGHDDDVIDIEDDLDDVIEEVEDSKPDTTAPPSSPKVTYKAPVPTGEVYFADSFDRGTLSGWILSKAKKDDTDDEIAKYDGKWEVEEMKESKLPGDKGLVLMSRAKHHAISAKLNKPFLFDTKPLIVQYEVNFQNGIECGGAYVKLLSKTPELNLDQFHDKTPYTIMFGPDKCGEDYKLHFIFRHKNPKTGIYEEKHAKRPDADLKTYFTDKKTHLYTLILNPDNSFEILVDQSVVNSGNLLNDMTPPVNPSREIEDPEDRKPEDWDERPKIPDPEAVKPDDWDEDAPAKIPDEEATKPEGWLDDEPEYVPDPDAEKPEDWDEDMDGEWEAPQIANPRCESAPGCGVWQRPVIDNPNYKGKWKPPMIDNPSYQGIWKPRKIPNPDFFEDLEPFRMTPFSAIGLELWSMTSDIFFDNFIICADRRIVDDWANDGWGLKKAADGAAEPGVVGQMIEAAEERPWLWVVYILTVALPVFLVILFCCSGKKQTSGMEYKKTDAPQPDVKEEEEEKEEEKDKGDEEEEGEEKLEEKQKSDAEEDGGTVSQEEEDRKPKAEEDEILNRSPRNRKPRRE

Protein sequences, listed by entry. Tags and fused reporters are not part of them. Lines headed by an entry give the natural chain unless they say otherwise; changes in a name come on top. Residues count along the entry.
UniProt P27824: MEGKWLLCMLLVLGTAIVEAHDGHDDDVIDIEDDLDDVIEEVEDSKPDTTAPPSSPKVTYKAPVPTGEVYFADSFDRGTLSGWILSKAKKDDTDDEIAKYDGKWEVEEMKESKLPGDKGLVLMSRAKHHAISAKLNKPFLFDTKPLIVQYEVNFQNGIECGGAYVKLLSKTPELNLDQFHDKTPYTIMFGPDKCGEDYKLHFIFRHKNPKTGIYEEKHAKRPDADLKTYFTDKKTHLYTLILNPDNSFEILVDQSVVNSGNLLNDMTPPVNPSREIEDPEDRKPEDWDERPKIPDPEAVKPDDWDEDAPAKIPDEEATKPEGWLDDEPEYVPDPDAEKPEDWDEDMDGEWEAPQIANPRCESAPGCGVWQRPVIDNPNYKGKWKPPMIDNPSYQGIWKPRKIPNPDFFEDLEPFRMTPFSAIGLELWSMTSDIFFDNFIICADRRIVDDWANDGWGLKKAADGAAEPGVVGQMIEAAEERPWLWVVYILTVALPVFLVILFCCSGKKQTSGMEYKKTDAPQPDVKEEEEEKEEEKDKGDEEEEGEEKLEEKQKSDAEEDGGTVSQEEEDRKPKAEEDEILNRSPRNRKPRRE
UniProt P03407, residues 2-210: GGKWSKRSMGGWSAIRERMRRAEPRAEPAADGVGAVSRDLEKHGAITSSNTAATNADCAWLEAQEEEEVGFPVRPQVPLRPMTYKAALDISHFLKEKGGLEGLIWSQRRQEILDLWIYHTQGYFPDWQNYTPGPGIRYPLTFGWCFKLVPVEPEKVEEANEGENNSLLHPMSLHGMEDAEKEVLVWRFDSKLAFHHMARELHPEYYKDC

[3] = target: T2, recombinant calnexin cytoplasmic tail (CNX-CT), N-terminal His-tag and SUMO domain, purified from E. coli (human) (UniProt P27824); assay: as above
T2 sequence: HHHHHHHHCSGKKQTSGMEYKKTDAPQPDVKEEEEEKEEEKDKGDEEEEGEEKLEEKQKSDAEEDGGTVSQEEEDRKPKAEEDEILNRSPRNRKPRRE

[4] = target: T1, recombinant full-length calnexin (CNX), His-tagged, purified from E. coli after removal of the CL7 tag (human); assay: brief legend of FIG. 5A
[5] = target: T2, recombinant calnexin cytoplasmic tail (CNX-CT), N-terminal His-tag and SUMO domain, purified from E. coli (human); assay: brief legend of FIG. 5A
[6] = target: T1, recombinant full-length calnexin (CNX), His-tagged, purified from E. coli after removal of the CL7 tag (human); assay: SPR (Biacore T-200, CM5 chip), CNX immobilised by amine coupling, myristoylated NefSF2 injected at 6.25-200 nM in triplicate [left panel 'Nef BINDING TO CNX']
[7] = target: T2, recombinant calnexin cytoplasmic tail (CNX-CT), N-terminal His-tag and SUMO domain, purified from E. coli (human); assay: SPR (Biacore T-200, CM5 chip), CNX-CT immobilised by amine coupling, myristoylated NefSF2 injected at 6.25-200 nM [right panel 'Nef BINDING TO CNX-CT']

Measured: binding

HA-tagged Nef (NefBRU) (from UniProt P03406 2-206)
binds: [1]

myristoylated NefSF2 (from UniProt P03407 2-210)
not listed: [1]
binds: all other assays above

Source: US10684274 (GEORGE WASHINGTON UNIVERSITY A CONGRESSIONALLY CHARTERED …, dated 2020)
